Reference: PubChem BioAssay AID686937 (Drosophila RNAi Screening Center, 2013)
The deposit covers about 23,000 reagents; this is a random part of those with a known target gene and a result. 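Reduced-secretion tags in replicate 1 do not always agree with the z-scores; no criterion for assigning the tags was given.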 A plus sign joins genes that one reagent is predicted to hit. Further read-outs or replicates are left out here. Not given: the amount of reagent.

- Assay: 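Genes in the fly needed for secretion of protein constitutively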 (primary screen)
- Cells: Drosophila S2 cells expressing secreted horseradish peroxidase
- Reagent: long dsRNA against Drosophila genes
- Time to read-out: about 5.5 days (5 days dsRNA, then 12 h reporter induction)
- Conditions: reporter expression induced after 5 days of dsRNA, read 12 h later; inducer not stated
- Detection: 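After 5 days of dsRNA and 12 h of reporter induction, medium peroxidase read by chemiluminescence and scored as per-plate z-score; higher values mean more reporter released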
- Direction: z-score: higher = more reporter secreted into medium

The opening 2 entries, ahead of the listing:
no.	target gene	dsRNA	z-score, replicate 1
1	CG33110	DRSC14694	-1.56
2	CG33110	DRSC16137	0.49

Main list, from the start:
no.	target gene	dsRNA	z-score, replicate 1
1	CG33110	DRSC14694	-1.56
2	CG33110	DRSC16137	0.49
3	ppl	DRSC11899	0.24
4	CG16959	DRSC10230	0.31
5	CG17681	DRSC02632	0.36
6	Syn2	DRSC06902	0.31
7	CG4676	DRSC06879	0.24
8	Mtmr6	DRSC04046	0.36
9	Osi15	DRSC12178	0.37
10	lama	DRSC11361	-0.25
11	CG1146	DRSC08189	0.12
12	Ire1	DRSC15606	0.34
13	CG33523	DRSC09814	0.12
14	CG33523	DRSC22155	-1.05
15	CG2116	DRSC18206	0.39
16	Eig71Eh	DRSC11155	0.29
17	Oatp26F	DRSC02149	0.31
18	Oatp26F	DRSC02272	0.46
19	Oatp26F	DRSC02695	0.31
20	CG7432	DRSC16243	0.4
21	CG32262	DRSC08165	0.41
22	Atg17	DRSC12221	0.21
23	mus302	DRSC09905	0.11
24	snz	DRSC17969	0.21
25	CG33111	DRSC14208	0.09
26	CG33111	DRSC14444	0.37
27	CG43064	DRSC09133	0.51
28	CG15818	DRSC02505	0.23
29	Lcp65Ag3 + Lcp65Ag2 + Lcp65Ag1	DRSC11214	0.36
30	Lcp65Ag3 + Lcp65Ag2 + Lcp65Ag1	DRSC11215	0.13
31	CG12863	DRSC06203	0.12
32	CG31525	DRSC12004	0.23
33	Fam92	DRSC02952	0.26
34	CG13102	DRSC02202	0.07
35	mEFG1	DRSC02758	-0.61
36	cype	DRSC02356	-0.7
37	St1	DRSC04504	-0.03
38	CG30002	DRSC05182	-0.09
39	CG12204	DRSC19442	0.17
40	CG15927	DRSC19742	-0.31
41	CG32104	DRSC10127	-0.72
42	CG32104	DRSC10128	0.38
43	Spc105R	DRSC11663	-3.98
44	CG14073	DRSC10078	0.07
45	CG31183	DRSC14403	0.08
46	CG31183	DRSC15554	0.36
47	Dhit	DRSC07411	0.29
48	tub	DRSC12389	-0.77
49	tub	DRSC22800	-0.2
50	CG12682	DRSC17873	0.02
51	GstE5	DRSC06675	0.14
52	CG14659	DRSC12245	-0.01
53	Usp47	DRSC11313	-0.07
54	CG4218	DRSC01939	-0.54
55	Aldh	DRSC02717	-0.41
56	yellow-e3	DRSC15170	0.61
